According to doi:10.1101/2022.12.29.522203:

How the values were obtained:
Test in all cases: EMSA
[1] = tested on: JUNB + BATF; conditions: protein in a lysate after overexpression
[2] = tested on: IRF4-WT DBD + JUNB DBD + BATF DBD
[3] = tested on: IRF4-C99R DBD + JUNB DBD + BATF DBD

AGCTCTTGCCTTAGAGGTTTCGGGATGACTAATACTGTA / AGCTTACAGTATTAGTCATCCCGAAACCTCTAAGGCAAG [AICE1 (Ctla4)]
binding result [1]: binds

AGCTTAGTGCAGAAATGAGTCAGAGATCAAAGAAG / AGCTCTTCTTTGATCTCTGACTCATTTCTGCACTA [AICE2 (Bcl11b)]
binding result [1]: binds

AGTGCATACATGAGTCAGAGATC / AGGATCTCTGACTCATGTATGCA [AICE2 (Bcl11b) IRFMut short]
binding result ([2]; composite complex abolished): no binding

AGTGCATGTATGAGTCAGAGATC / AGGATCTCTGACTCATACATGCA [AICE2FLIP IRFMut short]
binding result ([2]; composite complex abolished): no binding

AGTGCATTTCTGAGTCAGAGATC / AGGATCTCTGACTCAGAAATGCA [AICE2FLIP short]
binding result ([2]; C99R binds exclusively): no binding
binding result [3]: binds

For part of these data: A negative result means that nothing was seen under these conditions. For part of these data: At least one verdict was read from the data and is not stated in words by the source. Construct, isoform or probe ends are uncertain for at least one entry. For part of these data: Results from cells or extracts need not show a direct contact.
